This is an account of results in patent publication US20070275911A1, “Targeted Drug-Formaldehyde Conjugates and Methods of Making and Using the Same” (priority 2003, published 2007).

The chains behind the UniProt entries cited, without tags or fusion partners. Residues count along the entry.
UniProt P05106, 27-788 limits assumed: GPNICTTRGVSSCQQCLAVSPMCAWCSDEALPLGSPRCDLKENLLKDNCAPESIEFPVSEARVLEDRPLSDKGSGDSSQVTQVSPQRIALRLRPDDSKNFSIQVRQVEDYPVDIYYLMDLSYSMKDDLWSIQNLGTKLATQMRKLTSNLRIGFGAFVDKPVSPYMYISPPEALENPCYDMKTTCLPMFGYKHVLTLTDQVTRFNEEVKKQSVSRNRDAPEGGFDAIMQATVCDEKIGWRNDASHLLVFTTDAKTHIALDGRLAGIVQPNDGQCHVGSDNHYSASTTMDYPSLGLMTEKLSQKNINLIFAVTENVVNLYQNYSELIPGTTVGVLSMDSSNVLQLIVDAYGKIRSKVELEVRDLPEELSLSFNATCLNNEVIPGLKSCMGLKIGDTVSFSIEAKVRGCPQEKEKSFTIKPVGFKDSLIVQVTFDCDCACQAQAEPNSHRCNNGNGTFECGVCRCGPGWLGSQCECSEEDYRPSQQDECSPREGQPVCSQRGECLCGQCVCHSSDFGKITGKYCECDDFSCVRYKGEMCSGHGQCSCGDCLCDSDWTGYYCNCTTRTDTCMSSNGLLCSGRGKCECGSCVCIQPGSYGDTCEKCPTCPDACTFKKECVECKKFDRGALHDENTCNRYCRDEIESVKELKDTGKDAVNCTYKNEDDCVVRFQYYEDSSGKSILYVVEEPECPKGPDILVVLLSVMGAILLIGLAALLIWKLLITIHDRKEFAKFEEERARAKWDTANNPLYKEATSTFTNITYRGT
UniProt P06756, 31-889 limits assumed: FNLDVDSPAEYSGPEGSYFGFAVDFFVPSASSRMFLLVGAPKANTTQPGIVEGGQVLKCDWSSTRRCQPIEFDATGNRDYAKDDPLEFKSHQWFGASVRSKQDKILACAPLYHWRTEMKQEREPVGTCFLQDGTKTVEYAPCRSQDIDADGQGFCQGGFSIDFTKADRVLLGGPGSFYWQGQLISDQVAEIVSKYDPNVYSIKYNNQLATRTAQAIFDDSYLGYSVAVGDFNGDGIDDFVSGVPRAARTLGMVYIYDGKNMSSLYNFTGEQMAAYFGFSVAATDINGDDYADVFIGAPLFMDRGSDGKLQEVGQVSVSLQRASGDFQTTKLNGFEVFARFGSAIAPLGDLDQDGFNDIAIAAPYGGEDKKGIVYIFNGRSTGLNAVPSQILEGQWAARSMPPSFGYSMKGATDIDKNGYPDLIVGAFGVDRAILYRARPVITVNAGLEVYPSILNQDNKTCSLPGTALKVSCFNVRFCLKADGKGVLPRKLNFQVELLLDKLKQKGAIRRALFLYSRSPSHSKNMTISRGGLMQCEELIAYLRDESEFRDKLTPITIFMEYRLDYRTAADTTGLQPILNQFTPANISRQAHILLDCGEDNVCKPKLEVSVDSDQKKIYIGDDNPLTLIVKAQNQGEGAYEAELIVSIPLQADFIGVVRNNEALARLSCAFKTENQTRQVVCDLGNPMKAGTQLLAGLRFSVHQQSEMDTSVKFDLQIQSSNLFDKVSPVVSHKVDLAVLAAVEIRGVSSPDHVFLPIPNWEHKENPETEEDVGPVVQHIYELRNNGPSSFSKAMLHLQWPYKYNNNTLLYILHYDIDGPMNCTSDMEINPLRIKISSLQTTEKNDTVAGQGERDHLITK
UniProt P06756, 891-1048 partner limits assumed: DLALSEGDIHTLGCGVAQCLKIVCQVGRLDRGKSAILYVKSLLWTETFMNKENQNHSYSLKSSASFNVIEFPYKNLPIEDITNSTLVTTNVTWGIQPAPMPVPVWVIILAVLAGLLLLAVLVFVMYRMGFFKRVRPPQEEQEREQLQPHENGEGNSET

The test system of one data set is MDA-MB-435 cells. In words: Growth inhibition assay (Example 6). The note with it: read-out: IC50 for inhibition of cell growth (nM), treatment time, tested form: TFA. Type of data set: cell-based, human.
The nature of data set [1]: Water solubility and storage stability of RGD constructs. The note with it: −80° C., TFA salt of N-Mannich base; tested form: TFA.
Another data set deals with ανβ3 on MBA-MB-435 cells (Homo sapiens, UniProt P05106+P06756). In words: ανβ3 binding by flow cytometry with cyclic-(N-Me-VRGDf-NH)-Oregon Green. The note with it: absence of Mn2+, up to 100 nM. The data set is classed as cell-based. (In flow cytometry, cells or beads pass a laser one at a time.)

Where two headings read alike, the source gives them in different places. The match of structure and compound is tentative.

The term IC50 denotes the concentration that inhibits the measured activity by half. For the molecule `COc1cccc2c1C(=O)c1c(O)c3c(c(O)c1C2=O)CC(O)(C(=O)CO)CC3OC1CC(NCNC(=O)c2cc(C=NOCC(=O)Nc3ccc(CC4NC(=O)C(CC(=O)O)NC(=O)CNC(=O)C(CCCNC(=N)N)NC(=O)C(C(C)C)N(C)C4=O)cc3)ccc2O)C(O)C(C)O1` (centres unmarked), the IC50 with MDA-MB-435 cells (20 min treatment) came out at 1000 nM; with MDA-MB-435 cells (1 h treatment), 250 nM; in the data set with MDA-MB-435 cells (4 h treatment), 90 nM. In addition, the storage stability entry in data set [1] is given as “stable for months”.
Take `CC(C)[C@H]1C(=O)N[C@@H](CCCNC(=N)N)C(=O)NCC(=O)N[C@@H](CC(=O)O)C(=O)N[C@H](Cc2ccc(NC(=O)CONC(=O)c3ccc4c(c3)C(=O)OC43c4cc(F)c(O)cc4Oc4cc(O)c(F)cc43)cc2)C(=O)N1C`: the “binding of dye to cells” value on ανβ3 on MBA-MB-435 cells was “little binding of dye was observed”.
